Measurements as given in publication PMC10602929.

Chains of the proteins cited; added tags and fusions are not shown.
UniProt Q14204: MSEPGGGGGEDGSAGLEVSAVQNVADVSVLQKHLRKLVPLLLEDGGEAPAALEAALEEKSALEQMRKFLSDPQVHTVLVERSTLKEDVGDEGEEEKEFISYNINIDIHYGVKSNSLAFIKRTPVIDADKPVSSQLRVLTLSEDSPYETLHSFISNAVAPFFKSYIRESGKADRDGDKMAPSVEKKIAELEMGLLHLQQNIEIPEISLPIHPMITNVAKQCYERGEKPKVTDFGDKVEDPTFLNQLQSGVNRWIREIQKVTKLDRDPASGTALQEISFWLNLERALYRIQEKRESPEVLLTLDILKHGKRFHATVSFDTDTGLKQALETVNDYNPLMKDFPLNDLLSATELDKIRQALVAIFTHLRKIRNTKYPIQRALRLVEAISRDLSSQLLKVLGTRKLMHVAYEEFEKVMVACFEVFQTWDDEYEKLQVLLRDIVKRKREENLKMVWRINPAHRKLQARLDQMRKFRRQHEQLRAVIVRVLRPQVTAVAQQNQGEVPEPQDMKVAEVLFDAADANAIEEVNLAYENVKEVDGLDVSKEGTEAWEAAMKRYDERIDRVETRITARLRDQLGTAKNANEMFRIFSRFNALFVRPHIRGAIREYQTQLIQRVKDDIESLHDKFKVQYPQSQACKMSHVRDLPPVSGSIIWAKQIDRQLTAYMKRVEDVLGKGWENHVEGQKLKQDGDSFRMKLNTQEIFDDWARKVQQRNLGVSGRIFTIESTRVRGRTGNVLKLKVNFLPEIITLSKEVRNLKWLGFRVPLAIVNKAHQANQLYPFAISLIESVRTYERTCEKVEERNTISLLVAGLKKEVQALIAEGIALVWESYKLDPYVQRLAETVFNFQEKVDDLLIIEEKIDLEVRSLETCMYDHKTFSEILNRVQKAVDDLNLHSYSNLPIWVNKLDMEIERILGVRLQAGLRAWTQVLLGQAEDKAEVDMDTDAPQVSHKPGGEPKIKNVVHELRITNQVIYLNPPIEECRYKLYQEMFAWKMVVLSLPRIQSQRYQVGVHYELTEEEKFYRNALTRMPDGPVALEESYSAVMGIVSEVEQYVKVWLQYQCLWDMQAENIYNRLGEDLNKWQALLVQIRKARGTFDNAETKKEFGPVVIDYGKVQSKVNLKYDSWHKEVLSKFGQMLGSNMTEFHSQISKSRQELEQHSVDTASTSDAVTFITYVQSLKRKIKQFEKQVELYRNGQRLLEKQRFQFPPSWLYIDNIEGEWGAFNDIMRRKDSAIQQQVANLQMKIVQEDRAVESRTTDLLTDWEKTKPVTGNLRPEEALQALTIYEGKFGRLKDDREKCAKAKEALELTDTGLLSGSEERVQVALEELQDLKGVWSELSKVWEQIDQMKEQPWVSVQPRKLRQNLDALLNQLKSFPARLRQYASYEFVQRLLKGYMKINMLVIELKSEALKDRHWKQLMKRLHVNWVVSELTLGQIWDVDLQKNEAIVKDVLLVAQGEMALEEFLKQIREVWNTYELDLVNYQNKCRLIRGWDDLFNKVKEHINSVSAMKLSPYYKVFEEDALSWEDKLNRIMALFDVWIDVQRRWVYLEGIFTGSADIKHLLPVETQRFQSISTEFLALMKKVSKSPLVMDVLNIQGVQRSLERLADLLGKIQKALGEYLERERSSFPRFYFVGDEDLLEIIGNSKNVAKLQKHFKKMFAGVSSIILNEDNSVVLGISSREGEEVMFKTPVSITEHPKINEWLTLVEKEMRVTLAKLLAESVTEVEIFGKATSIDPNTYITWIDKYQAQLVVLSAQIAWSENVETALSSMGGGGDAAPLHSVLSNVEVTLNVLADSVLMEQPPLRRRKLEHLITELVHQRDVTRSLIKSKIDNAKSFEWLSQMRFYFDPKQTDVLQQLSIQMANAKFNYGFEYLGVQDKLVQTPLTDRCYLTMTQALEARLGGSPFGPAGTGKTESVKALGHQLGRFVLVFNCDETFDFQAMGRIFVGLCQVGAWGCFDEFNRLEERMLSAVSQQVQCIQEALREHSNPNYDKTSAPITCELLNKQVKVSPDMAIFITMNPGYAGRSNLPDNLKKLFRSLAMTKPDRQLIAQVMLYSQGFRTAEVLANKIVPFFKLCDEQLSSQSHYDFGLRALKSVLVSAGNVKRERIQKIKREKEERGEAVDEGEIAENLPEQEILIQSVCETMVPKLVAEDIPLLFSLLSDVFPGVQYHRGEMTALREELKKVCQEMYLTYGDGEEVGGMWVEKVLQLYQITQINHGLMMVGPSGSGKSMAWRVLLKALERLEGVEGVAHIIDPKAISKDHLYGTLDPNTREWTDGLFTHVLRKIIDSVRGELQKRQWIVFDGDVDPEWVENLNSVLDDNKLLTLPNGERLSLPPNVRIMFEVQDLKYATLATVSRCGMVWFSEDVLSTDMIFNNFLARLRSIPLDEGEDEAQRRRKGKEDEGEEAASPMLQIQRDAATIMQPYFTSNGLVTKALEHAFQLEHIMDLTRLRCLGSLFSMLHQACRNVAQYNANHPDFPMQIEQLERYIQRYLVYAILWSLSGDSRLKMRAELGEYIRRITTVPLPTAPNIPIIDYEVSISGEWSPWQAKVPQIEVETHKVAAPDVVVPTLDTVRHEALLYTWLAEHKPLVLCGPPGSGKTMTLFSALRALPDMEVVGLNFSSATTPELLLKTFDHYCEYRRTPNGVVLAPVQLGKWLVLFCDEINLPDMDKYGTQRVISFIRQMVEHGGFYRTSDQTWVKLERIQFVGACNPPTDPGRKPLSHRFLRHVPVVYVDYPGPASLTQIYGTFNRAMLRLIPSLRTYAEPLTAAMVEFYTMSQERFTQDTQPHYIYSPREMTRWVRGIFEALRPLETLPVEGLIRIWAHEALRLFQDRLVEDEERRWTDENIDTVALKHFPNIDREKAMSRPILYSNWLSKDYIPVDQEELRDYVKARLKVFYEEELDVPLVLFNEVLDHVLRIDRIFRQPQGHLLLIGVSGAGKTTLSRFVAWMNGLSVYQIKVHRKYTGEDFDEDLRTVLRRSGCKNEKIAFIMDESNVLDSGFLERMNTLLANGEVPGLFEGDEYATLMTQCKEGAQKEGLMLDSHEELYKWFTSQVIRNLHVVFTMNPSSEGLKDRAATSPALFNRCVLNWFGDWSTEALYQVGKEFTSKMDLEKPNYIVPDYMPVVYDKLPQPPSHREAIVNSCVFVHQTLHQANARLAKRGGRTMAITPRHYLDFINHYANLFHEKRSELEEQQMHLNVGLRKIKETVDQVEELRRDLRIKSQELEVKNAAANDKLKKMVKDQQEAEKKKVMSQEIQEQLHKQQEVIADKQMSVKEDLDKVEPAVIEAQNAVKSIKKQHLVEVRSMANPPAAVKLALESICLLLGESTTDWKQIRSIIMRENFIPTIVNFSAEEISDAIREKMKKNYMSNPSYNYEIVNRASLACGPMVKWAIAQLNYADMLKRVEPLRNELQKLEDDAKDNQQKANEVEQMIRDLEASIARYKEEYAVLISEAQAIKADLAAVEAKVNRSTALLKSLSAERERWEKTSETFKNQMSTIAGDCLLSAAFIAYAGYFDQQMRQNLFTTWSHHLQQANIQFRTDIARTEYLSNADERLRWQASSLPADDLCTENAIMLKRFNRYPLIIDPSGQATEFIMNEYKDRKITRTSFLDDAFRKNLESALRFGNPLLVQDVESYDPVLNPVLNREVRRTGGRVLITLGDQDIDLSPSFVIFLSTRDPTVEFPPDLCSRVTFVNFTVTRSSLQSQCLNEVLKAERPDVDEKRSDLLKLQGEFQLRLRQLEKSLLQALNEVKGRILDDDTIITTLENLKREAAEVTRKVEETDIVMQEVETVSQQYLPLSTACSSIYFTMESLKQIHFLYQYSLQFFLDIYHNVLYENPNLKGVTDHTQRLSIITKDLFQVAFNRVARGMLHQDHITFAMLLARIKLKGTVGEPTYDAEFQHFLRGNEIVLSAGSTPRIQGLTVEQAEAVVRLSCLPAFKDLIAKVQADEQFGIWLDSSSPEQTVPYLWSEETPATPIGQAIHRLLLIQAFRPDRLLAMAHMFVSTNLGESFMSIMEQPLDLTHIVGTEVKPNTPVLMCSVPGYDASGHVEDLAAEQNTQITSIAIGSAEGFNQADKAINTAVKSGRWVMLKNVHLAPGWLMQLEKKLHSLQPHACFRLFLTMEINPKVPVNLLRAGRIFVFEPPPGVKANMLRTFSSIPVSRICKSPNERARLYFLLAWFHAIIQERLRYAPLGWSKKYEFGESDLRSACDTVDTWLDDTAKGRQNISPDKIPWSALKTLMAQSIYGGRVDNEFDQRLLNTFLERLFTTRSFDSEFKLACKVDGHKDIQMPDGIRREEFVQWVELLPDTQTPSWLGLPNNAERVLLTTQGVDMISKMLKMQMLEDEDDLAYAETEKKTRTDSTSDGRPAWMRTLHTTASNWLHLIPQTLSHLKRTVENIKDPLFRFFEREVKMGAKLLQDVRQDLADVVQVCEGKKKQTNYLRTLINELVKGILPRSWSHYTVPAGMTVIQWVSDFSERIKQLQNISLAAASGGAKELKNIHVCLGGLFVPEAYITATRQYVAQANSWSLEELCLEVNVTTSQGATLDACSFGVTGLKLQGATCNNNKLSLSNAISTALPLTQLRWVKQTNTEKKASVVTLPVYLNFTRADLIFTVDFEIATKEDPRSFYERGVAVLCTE

T1: HA-TRIM69A (UniProt Q86WT6)
T1 sequence: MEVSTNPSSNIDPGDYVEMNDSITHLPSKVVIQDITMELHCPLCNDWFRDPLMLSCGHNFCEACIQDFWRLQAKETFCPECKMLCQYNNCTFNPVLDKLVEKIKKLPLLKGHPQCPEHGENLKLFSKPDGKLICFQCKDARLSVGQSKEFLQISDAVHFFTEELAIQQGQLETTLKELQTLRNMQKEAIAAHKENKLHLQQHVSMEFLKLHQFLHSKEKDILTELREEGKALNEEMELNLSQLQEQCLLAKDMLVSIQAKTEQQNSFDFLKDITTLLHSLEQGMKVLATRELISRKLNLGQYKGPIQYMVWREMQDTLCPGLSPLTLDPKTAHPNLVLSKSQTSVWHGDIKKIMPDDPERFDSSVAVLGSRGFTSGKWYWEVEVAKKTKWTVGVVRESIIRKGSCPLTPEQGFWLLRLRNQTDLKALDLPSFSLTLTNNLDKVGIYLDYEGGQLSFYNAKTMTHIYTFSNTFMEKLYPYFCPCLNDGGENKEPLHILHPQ

T2: HA-MST2 (UniProt Q13188)
T2 sequence: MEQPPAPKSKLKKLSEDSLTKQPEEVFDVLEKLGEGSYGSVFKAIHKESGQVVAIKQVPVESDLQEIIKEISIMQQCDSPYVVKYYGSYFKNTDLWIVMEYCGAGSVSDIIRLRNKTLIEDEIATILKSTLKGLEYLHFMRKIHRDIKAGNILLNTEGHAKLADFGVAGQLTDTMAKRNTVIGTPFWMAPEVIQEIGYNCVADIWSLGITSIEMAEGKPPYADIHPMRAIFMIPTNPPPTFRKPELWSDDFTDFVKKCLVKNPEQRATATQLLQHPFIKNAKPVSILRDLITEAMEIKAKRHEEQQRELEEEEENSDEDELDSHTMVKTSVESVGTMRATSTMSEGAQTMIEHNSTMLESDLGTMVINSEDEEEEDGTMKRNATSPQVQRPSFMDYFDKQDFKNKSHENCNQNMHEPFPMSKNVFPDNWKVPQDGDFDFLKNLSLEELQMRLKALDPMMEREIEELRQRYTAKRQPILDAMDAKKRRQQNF

B1: Nuclear Pore protein NUP133, endogenous (protein, UniProt Q8WUM0 1-1156)
chain: MFPAAPSPRTPGTGSRRGPLAGLGPGSTPRTASRKGLPLGSAVSSPVLFSPVGRRSSLSSRGTPTRMFPHHSITESVNYDVKTFGSSLPVKVMEALTLAEVDDQLTINIDEGGWACLVCKEKLIIWKIALSPITKLSVCKELQLPPSDFHWSADLVALSYSSPSGEAHSTQAVAVMVATREGSIRYWPSLAGEDTYTEAFVDSGGDKTYSFLTAVQGGSFILSSSGSQLIRLIPESSGKIHQHILPQGQGMLSGIGRKVSSLFGILSPSSDLTLSSVLWDRERSSFYSLTSSNISKWELDDSSEKHAYSWDINRALKENITDAIWGSESNYEAIKEGVNIRYLDLKQNCDGLVILAAAWHSADNPCLIYYSLITIEDNGCQMSDAVTVEVTQYNPPFQSEDLILCQLTVPNFSNQTAYLYNESAVYVCSTGTGKFSLPQEKIVFNAQGDSVLGAGACGGVPIIFSRNSGLVSITSRENVSILAEDLEGSLASSVAGPNSESMIFETTTKNETIAQEDKIKLLKAAFLQYCRKDLGHAQMVVDELFSSHSDLDSDSELDRAVTQISVDLMDDYPASDPRWAESVPEEAPGFSNTSLIILHQLEDKMKAHSFLMDFIHQVGLFGRLGSFPVRGTPMATRLLLCEHAEKLSAAIVLKNHHSRLSDLVNTAILIALNKREYEIPSNLTPADVFFREVSQVDTICECLLEHEEQVLRDAPMDSIEWAEVVINVNNILKDMLQAASHYRQNRNSLYRREESLEKEPEYVPWTATSGPGGIRTVIIRQHEIVLKVAYPQADSNLRNIVTEQLVALIDCFLDGYVSQLKSVDKSSNRERYDNLEMEYLQKRSDLLSPLLSLGQYLWAASLAEKYCDFDILVQMCEQTDNQSRLQRYMTQFADQNFSDFLFRWYLEKGKRGKLLSQPISQHGQLANFLQAHEHLSWLHEINSQELEKAHATLLGLANMETRYFAKKKTLLGLSKLAALASDFSEDMLQEKIEEMAEQERFLLHQETLPEQLLAEKQLNLSAMPVLTAPQLIGLYICEENRRANEYDFKKALDLLEYIDEEEDININDLKLEILCKALQRDNWSSSDGKDDPIEVSKDSIFVKILQKLLKDGIQLSEYLPEVKDLLQADQLGSLKSNPYFEFVLKANYEYYVQGQI
B2: TNPO2, endogenous (protein, UniProt O14787 1-897)
chain: MDWQPDEQGLQQVLQLLKDSQSPNTATQRIVQDKLKQLNQFPDFNNYLIFVLTRLKSEDEPTRSLSGLILKNNVKAHYQSFPPPVADFIKQECLNNIGDASSLIRATIGILITTIASKGELQMWPELLPQLCNLLNSEDYNTCEGAFGALQKICEDSSELLDSDALNRPLNIMIPKFLQFFKHCSPKIRSHAIACVNQFIMDRAQALMDNIDTFIEHLFALAVDDDPEVRKNVCRALVMLLEVRIDRLIPHMHSIIQYMLQRTQDHDENVALEACEFWLTLAEQPICKEVLASHLVQLIPILVNGMKYSEIDIILLKGDVEEDEAVPDSEQDIKPRFHKSRTVTLPHEAERPDGSEDAEDDDDDDALSDWNLRKCSAAALDVLANVFREELLPHLLPLLKGLLFHPEWVVKESGILVLGAIAEGCMQGMVPYLPELIPHLIQCLSDKKALVRSIACWTLSRYAHWVVSQPPDMHLKPLMTELLKRILDGNKRVQEAACSAFATLEEEACTELVPYLSYILDTLVFAFGKYQHKNLLILYDAIGTLADSVGHHLNQPEYIQKLMPPLIQKWNELKDEDKDLFPLLECLSSVATALQSGFLPYCEPVYQRCVTLVQKTLAQAMMYTQHPEQYEAPDKDFMIVALDLLSGLAEGLGGHVEQLVARSNIMTLLFQCMQDSMPEVRQSSFALLGDLTKACFIHVKPCIAEFMPILGTNLNPEFISVCNNATWAIGEICMQMGAEMQPYVQMVLNNLVEIINRPNTPKTLLENTGRLTSPSAIPAITIGRLGYVCPQEVAPMLQQFIRPWCTSLRNIRDNEEKDSAFRGICMMIGVNPGGVVQDFIFFCDAVASWVSPKDDLRDMFYKILHGFKDQVGEDNWQQFSEQFPPLLKERLAAFYGV
B3: NDE1, endogenous (protein, UniProt Q9NXR1 1-335)
chain: MEDSGKTFSSEEEEANYWKDLAMTYKQRAENTQEELREFQEGSREYEAELETQLQQIETRNRDLLSENNRLRMELETIKEKFEVQHSEGYRQISALEDDLAQTKAIKDQLQKYIRELEQANDDLERAKRATIMSLEDFEQRLNQAIERNAFLESELDEKENLLESVQRLKDEARDLRQELAVQQKQEKPRTPMPSSVEAERTDTAVQATGSVPSTPIAHRGPSSSLNTPGSFRRGLDDSTGGTPLTPAARISALNIVGDLLRKVGALESKLASCRNLVYDQSPNRTGGPASGRSSKNRDGGERRPSSTSVPLGDKGLDTSCRWLSKSTTRSSSSC
B4: zinc ribbon domain containing 2, endogenous (protein, UniProt O60232 1-199)
chain: MALNGAEVDDFSWEPPTEAETKVLQARRERQDRISRLMGDYLLRGYRMLGETCADCGTILLQDKQRKIYCVACQELDSDVDKDNPALNAQAALSQAREHQLASASELPLGSRPAPQPPVPRPEHCEGAAAGLKAAQGPPAPAVPPNTDVMACTQTALLQKLTWASAELGSSTSLETSIQLCGLIRACAEALRSLQQLQH

molecular target: T1, HA-TRIM69A; assay: affinity purification with mass spectrometry; anti-HA immunopurification of HA-TRIM69A and HA-TRIM69B complexes from detergent-soluble and detergent-insoluble (DNAse, sonication) extracts of adenovirus-transduced H1299 cells; empty adenovirus vector as control; on-bead trypsin digestion, LC/MS/MS

binding	Molecule
binds	Dynein Cytoplasmic 1 Heavy Chain 1 (DYNC1H1), endogenous (from UniProt Q14204 1-4646)
binds	Nuclear Pore protein NUP205, endogenous (from UniProt Q92621 1-2012)
binds	B1

molecular target: T2, HA-MST2; assay: affinity purification with mass spectrometry; Figure 4A; MST2 complexes immunopurified from detergent-soluble and detergent-insoluble fractions of cells with or without co-expressed TRIM69A (WT or catalytically-inactive mutant); on-bead trypsin digestion, LC/MS/MS

binding	Molecule
binds	B2
binds	B3
binds	B4

These are yes or no findings as the source states them, for the method shown. Binding seen in cells or lysates may run through a third protein. A yes stands for co-enrichment or nearness to the bait. Other partners may have been found. Tags and fused reporters may be left off the sequences shown.
